The target in the experiment is VEGF (biotinylated target on streptavidin BLI probe) (UniProt P15692). The experiment is described as follows: anti-VEGF potency as kd (nM); assay not given, Example 6 describes BLI on biotinylated target.

Sequences of proteins named here, by UniProt entry; tags and fusion partners are left off. A change or cut given only in a name is not applied to a line headed by its entry. A line that says so, or that is headed by a name, gives the form on record, which may keep a tag or linker.
VEGF (biotinylated target on streptavidin BLI probe) (P15692, form named): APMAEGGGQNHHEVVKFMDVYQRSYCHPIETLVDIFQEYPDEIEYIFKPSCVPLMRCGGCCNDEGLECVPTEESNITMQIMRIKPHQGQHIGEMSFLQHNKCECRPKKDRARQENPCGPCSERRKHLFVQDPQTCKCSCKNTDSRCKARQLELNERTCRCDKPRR

These are yes or no findings as the source states them, for the method shown. Some binding calls cover weakened binding; strength is not graded here.

B1: E1-1 (VHH)
VHH: EVQLQASGGGFVQPGGSLRLSCAASGGGSDAGTMGWFRQAPGKEREFVSAISWAGTAWRYYADSVKGRFTISRDNSKNTVYLQMNSLRAEDTATYYCALGSYEMDHHYWGQGTQVTVSS
Turning to B1, the binding entry is listed as “binds”.

For the origin of these results see US20220251185A1 (VALITOR, published 2022).
